# From US20170290889A1, “METHODS AND COMPOSITIONS FOR TREATING DYSBIOSIS AND GASTROINTESTINAL AND INFLAMMATORY DISORDERS” (New York University, priority 2016, published 2017)
# Test system: gut microbiota
# Details: Orang Asli stool, post vs pre treatment with Albendazole
smiles,measurement,value
CCCSc1ccc2nc(NC(=O)OC)[nH]c2c1 [albendazole],Bacteroidales (Prevotella) abundance by LEfSe,significantly expanded
